This is one part of the list. Most values lie at the level of the controls, where differences are scatter.
These targets were tested with Cc1nc(Nc2ncc(C(=O)Nc3c(C)cccc3Cl)s2)cc(N2CCN(CCO)CC2)n1 [dasatinib] (assay: log2 fold change of tryptic peptide abundance, ligand vs vehicle (limited proteolysis) (log2 ratio); higher = more trypsin-susceptible (destabilized)). Settings: ligand concentration: 5 uM; sample: K562 cleared lysate.

Protein sequences, listed by entry. Tags and fused reporters are not part of them. Lines headed by an entry give the natural chain unless they say otherwise; changes in a name come on top.
UniProt O94892: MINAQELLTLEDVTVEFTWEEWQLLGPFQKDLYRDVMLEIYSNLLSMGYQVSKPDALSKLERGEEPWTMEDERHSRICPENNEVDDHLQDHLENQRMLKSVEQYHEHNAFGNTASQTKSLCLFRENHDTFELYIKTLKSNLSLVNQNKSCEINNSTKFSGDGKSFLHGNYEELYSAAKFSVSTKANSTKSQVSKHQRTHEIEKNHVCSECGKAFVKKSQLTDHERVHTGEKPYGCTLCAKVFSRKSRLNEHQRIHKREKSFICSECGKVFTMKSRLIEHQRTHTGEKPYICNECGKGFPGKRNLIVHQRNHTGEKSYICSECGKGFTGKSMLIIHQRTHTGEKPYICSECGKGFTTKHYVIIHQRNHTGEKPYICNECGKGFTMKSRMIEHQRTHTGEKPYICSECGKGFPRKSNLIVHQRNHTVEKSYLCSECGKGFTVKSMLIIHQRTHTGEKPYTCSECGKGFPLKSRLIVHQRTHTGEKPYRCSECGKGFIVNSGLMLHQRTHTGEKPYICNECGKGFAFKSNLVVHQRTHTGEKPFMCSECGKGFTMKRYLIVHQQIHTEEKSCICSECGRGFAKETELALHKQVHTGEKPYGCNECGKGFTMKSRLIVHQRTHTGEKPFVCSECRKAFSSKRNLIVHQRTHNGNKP
UniProt O95104: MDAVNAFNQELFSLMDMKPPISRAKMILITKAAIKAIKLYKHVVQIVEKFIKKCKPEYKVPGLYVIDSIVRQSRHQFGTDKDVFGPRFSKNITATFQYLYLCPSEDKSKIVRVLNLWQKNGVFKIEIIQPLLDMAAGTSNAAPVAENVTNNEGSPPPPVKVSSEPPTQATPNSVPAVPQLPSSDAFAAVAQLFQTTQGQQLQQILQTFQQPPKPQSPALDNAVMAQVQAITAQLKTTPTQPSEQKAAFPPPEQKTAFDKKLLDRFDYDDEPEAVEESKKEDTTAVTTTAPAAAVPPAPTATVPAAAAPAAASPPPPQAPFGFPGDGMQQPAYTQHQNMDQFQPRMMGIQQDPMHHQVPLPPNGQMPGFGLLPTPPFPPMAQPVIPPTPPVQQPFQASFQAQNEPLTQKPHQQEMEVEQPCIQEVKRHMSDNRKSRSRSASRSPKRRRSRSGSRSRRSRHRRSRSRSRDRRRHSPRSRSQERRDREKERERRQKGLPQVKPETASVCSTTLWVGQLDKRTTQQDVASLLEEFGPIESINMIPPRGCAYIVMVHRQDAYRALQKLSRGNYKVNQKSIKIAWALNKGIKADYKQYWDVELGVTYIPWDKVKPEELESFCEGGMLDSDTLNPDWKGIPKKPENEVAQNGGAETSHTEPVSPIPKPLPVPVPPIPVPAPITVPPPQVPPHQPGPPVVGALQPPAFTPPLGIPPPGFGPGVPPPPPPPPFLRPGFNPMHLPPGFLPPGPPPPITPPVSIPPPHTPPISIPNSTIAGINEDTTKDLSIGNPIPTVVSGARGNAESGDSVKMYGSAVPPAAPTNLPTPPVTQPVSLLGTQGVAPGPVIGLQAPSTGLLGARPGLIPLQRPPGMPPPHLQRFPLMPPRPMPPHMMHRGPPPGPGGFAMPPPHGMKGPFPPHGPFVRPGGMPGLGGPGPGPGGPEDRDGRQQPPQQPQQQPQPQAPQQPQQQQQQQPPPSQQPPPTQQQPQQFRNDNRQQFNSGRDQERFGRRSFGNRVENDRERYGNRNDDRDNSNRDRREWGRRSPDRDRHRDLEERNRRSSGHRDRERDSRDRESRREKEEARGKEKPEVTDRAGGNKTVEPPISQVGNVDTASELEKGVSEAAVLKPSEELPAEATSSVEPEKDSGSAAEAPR
UniProt O95466, whole entry: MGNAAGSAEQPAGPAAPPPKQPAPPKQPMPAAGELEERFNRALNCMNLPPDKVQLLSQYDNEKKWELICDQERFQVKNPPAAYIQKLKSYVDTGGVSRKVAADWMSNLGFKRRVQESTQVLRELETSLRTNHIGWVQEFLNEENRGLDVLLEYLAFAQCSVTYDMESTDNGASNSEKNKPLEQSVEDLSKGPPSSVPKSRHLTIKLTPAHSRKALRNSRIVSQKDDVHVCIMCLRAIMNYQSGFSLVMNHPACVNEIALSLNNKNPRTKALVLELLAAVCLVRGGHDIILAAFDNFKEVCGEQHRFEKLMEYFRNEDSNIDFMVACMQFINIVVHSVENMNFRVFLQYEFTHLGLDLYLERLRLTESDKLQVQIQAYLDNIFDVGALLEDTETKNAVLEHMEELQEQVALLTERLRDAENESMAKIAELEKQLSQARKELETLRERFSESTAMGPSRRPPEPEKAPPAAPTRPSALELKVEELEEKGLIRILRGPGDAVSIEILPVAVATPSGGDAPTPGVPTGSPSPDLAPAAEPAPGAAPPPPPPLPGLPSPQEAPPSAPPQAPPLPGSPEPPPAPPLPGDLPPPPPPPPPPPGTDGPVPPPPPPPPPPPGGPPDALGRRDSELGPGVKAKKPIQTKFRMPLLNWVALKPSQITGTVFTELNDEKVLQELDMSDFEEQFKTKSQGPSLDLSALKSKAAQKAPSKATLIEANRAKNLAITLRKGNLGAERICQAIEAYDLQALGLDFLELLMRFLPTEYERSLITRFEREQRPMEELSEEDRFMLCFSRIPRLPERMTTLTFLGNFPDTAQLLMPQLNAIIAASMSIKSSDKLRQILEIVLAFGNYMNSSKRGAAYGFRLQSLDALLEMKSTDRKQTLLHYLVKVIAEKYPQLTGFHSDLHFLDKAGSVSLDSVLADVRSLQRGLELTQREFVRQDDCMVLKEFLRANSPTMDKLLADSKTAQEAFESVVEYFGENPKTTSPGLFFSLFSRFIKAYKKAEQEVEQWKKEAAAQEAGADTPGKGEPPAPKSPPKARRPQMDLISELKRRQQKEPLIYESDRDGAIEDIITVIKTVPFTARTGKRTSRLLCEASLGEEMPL
UniProt O75449: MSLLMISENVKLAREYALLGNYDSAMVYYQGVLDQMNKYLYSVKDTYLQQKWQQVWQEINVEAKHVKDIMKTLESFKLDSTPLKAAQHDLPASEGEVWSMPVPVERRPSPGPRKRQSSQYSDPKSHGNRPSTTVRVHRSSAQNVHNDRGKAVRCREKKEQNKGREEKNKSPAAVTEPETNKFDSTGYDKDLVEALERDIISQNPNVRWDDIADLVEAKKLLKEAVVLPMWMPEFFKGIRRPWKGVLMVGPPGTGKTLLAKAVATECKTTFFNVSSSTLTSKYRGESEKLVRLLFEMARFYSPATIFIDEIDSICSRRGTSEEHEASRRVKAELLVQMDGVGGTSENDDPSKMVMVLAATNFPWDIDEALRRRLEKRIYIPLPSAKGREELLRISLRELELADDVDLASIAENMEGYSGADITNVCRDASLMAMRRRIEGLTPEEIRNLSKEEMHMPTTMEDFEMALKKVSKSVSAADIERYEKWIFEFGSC
UniProt O94868: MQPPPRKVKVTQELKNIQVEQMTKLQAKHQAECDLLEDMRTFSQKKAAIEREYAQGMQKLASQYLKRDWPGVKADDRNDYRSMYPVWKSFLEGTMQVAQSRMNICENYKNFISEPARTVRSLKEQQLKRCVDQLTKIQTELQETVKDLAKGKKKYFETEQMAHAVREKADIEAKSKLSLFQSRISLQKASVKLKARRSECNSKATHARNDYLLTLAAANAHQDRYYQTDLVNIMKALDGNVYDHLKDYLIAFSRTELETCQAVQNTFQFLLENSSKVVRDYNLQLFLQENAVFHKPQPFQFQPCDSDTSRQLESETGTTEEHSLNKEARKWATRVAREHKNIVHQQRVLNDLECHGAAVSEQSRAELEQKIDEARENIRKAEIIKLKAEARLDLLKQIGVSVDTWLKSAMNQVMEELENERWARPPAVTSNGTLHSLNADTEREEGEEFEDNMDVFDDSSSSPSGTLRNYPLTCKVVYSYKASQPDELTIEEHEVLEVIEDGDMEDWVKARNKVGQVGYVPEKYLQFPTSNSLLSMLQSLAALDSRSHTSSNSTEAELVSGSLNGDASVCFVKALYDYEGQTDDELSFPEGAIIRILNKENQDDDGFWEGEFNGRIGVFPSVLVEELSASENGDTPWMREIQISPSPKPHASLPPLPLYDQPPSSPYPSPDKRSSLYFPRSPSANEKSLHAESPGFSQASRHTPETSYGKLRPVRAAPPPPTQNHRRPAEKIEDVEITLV
UniProt O94874: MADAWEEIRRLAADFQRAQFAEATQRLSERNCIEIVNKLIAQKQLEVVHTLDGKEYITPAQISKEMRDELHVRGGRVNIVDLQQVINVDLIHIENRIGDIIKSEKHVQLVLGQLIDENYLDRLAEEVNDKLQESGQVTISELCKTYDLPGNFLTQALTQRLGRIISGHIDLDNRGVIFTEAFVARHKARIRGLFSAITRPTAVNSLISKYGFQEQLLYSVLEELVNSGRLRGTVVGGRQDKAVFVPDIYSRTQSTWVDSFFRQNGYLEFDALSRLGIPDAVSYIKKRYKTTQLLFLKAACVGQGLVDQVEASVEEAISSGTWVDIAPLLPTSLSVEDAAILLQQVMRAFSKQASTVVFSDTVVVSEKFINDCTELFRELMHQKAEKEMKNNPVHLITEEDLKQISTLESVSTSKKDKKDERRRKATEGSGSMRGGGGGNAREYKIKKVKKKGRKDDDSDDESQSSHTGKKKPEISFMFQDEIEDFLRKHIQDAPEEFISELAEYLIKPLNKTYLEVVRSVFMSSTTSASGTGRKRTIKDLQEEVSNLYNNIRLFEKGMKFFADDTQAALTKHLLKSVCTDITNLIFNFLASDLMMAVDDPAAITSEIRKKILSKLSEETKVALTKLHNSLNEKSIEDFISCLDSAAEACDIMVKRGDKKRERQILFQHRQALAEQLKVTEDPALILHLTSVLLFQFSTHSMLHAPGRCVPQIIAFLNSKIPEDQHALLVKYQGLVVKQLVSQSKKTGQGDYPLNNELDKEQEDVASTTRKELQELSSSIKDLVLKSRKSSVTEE
UniProt O94855: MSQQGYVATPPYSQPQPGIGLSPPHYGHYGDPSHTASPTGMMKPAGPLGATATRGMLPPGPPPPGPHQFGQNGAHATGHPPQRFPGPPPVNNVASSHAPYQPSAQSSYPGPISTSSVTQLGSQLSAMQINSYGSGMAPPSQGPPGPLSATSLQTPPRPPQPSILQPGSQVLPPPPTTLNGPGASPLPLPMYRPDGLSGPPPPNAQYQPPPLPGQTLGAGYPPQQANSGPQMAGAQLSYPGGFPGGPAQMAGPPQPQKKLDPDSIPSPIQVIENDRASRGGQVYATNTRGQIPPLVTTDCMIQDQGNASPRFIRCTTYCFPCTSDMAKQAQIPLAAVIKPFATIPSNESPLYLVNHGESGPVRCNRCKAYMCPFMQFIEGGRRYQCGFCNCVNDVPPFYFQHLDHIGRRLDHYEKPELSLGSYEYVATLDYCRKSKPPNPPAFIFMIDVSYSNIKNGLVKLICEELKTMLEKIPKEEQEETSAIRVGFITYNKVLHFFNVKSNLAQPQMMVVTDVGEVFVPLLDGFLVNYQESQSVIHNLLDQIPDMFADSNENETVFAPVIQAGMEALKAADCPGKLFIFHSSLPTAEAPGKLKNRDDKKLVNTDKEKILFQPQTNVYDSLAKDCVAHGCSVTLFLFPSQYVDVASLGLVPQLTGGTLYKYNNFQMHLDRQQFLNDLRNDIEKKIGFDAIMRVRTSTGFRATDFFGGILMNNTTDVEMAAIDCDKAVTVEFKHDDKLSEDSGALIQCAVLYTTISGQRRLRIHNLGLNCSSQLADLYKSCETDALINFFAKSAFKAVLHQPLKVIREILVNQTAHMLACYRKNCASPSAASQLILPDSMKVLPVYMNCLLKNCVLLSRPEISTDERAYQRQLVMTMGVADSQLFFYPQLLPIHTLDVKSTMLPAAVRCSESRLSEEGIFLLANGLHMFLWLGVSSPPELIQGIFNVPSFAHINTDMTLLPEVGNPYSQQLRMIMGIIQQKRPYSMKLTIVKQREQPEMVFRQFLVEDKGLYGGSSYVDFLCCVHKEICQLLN
UniProt O75822, whole entry: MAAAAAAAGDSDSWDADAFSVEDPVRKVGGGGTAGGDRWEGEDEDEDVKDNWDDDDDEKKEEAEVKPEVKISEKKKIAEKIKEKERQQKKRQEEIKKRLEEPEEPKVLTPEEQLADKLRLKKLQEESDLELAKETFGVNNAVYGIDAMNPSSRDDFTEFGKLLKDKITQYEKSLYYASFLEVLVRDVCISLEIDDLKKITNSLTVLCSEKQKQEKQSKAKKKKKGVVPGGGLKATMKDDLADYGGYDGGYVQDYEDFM
UniProt O95999: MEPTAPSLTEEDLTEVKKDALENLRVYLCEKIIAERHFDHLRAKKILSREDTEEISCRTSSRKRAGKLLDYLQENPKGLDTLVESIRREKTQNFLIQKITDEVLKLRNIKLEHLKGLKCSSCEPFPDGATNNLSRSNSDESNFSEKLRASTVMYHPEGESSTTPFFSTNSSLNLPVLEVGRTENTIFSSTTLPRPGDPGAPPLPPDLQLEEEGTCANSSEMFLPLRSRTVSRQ

Target | log2 fold change
ATG7 (peptide sequence: LAESSVDLNLK, peptide start residue: 328) (UniProt O95352) | 0.165
EML2 (peptide sequence: LKLEWVYGYR, peptide start residue: 55) (UniProt O95834) | 0.793
SKAP2 (peptide sequence: IYQFTAASPK, peptide start residue: 196) (UniProt O75563) | -0.197
UniProt O94892 (peptide sequence: SFLHGNYEELYSAAK, peptide start residue: 164) | 0.199
UniProt O95104 (peptide sequence: GNAESGDSVK, peptide start residue: 794) | -0.122
PRKRA (peptide sequence: HRAEAPPLEREDSGTFSLGK, peptide start residue: 6) (UniProt O75569) | -0.157
YEATS4 (peptide sequence: KLEEDDQAKDI, peptide start residue: 217) (UniProt O95619) | -0.253
FMNL1 (peptide sequence: ATLIEANR, peptide start residue: 707) (UniProt O95466) | -0.334
GRAP2 (peptide sequence: RSQGGPHLSGAVGEEIRPSMNR, peptide start residue: 163) (UniProt O75791) | -0.188
PPP1R15A (peptide sequence: APLSPSLLIR, peptide start residue: 140) (UniProt O75807) | 0.548
CD2BP2 (peptide sequence: ETVAGALRR, peptide start residue: 169) (UniProt O95400) | -0.338
SASH1 (peptide sequence: KPSTEGGEEHVFENSPVLDER, peptide start residue: 283) (UniProt O94885) | 0.962
KATNA1 (peptide sequence: NLSKEEMHMPTTMEDFEMALKK, peptide start residue: 447) (UniProt O75449) | -0.447
FARS2 (peptide sequence: LFWCEDER, peptide start residue: 331) (UniProt O95363) | 0.386
FCHSD2 (peptide sequence: MNICENYK, peptide start residue: 102) (UniProt O94868) | 0.454
UniProt O94874 (peptide sequence: QISTLESVSTSK, peptide start residue: 403) | 0.625
PMPCB (peptide sequence: QMLCYNR, peptide start residue: 425) (UniProt O75439) | 0.226
TRUB2 (peptide sequence: AATPQVAAELEK, peptide start residue: 285) (UniProt O95900) | -0.123
WDHD1 (peptide sequence: NQATKEQQELLMK, peptide start residue: 755) (UniProt O75717) | -0.276
SEC24D (peptide sequence: AVLHQPLK, peptide start residue: 796) (UniProt O94855) | 0.891
UniProt O95503 (peptide sequence: VIDKGAGGGGAGQGAGALAR, peptide start residue: 180) | 0.773
TRIM16 (peptide sequence: TQVSAVVQR, peptide start residue: 345) (UniProt O95361) | -0.0851
UniProt O95163 (peptide sequence: YCLSILTSHVKK, peptide start residue: 835) | -0.565
UniProt O75947 (peptide sequence: IVEYEKEMEK, peptide start residue: 112) | -0.376
EIF3J (peptide sequence: KRQEEIK, peptide start residue: 90) (UniProt O75822) | -0.135
BCL10 (peptide sequence: KDALENLR, peptide start residue: 18) (UniProt O95999) | 0.207

Retrieved one by one from above (two):
Target | log2 fold change
EML2 (peptide sequence: LKLEWVYGYR, peptide start residue: 55) (UniProt O95834) | 0.793
UniProt O75947 (peptide sequence: IVEYEKEMEK, peptide start residue: 112) | -0.376
